Source: PubChem BioAssay AID504764 (Drosophila RNAi Screening Center, 2011)
The screen tested about 22,000 reagents; shown is a random part of those that have a named target and a result. In the full data, 403 (1.9%) are marked active. 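Unnormalised raw counts per well; ratio z-scores behind the hit calls and whether each hit raises or lowers signal are not deposited.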 The numbers tell different reagents against one gene apart. A plus sign joins genes that one reagent is predicted to hit. Not stated in the record: the amount of reagent.

- Purpose: 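Knock-downs that raise or lower a Notch target reporter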 (primary screen)
- Cell system: Drosophila Kc167 cells
- Reagent: long dsRNA against Drosophila genes
- Duration: about 5 days (4 days dsRNA, then 24 h after transfection)
- Challenge: transfection of constitutively active membrane-tethered Notch lacking the extracellular domain, read 24 h later
- Measured: 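Light from a Notch-responsive E(spl)m3 luciferase reporter under active Notch, with control-promoter and no-Notch reporter wells to normalise; raw counts from paired wells a and b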
- Reading the numbers: induced reporter light, run 1, well a and induced reporter light, run 1, well b: higher = more light from the Notch target reporter with active Notch; control promoter light, run 1, well a and control promoter light, run 1, well b: higher = more light from the viral control promoter (cell number, transfection, viability); uninduced reporter light, run 1, well a: higher = more light from the Notch target reporter without active Notch
- Hit rule: 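Hit if the duplicate-averaged log2 ratio of induced to control-promoter light gives a plate-wise z beyond ±2, or induced to uninduced beyond ±1.8; weak-control or discordant-duplicate wells dropped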
- Calls: active = modifier hit (raised or lowered Notch signal); inactive = not a hit

CG17192 (GeneID 43248) → induced reporter light, run 1, well a: 1.51e5; induced reporter light, run 1, well b: 1.38e5; control promoter light, run 1, well a: 1.99e5; control promoter light, run 1, well b: 1.74e5; uninduced reporter light, run 1, well a: 13100; activity call: inactive
Pgm1 (GeneID 44010) → induced reporter light, run 1, well a: 1.25e5; induced reporter light, run 1, well b: 98400; control promoter light, run 1, well a: 75475; control promoter light, run 1, well b: 91250; uninduced reporter light, run 1, well a: 9680; activity call: inactive
CR32745 (GeneID 5740857) → induced reporter light, run 1, well a: 84515; induced reporter light, run 1, well b: 70520; control promoter light, run 1, well a: 77820; control promoter light, run 1, well b: 69330; uninduced reporter light, run 1, well a: 5420; activity call: inactive
CG4650 (GeneID 34859) → induced reporter light, run 1, well a: 1.05e5; induced reporter light, run 1, well b: 1.28e5; control promoter light, run 1, well a: 1.37e5; control promoter light, run 1, well b: 1.42e5; uninduced reporter light, run 1, well a: 10870; activity call: inactive
CG42525 (GeneID 8674097) → induced reporter light, run 1, well a: 1.87e5; induced reporter light, run 1, well b: 1.48e5; control promoter light, run 1, well a: 1.59e5; control promoter light, run 1, well b: 1.30e5; uninduced reporter light, run 1, well a: 12525; activity call: inactive
CG13843 (GeneID 42668) → induced reporter light, run 1, well a: 1.89e5; induced reporter light, run 1, well b: 1.42e5; control promoter light, run 1, well a: 1.83e5; control promoter light, run 1, well b: 1.79e5; uninduced reporter light, run 1, well a: 12250; activity call: inactive
CG9344 (GeneID 37372) → induced reporter light, run 1, well a: 41700; induced reporter light, run 1, well b: 30600; control promoter light, run 1, well a: 24175; control promoter light, run 1, well b: 25615; uninduced reporter light, run 1, well a: 1900; activity call: inactive
CG5776 (GeneID 34680) → induced reporter light, run 1, well a: 2.43e5; induced reporter light, run 1, well b: 2.44e5; control promoter light, run 1, well a: 1.95e5; control promoter light, run 1, well b: 2.23e5; uninduced reporter light, run 1, well a: 17400; activity call: inactive
Alas (GeneID 37815) → induced reporter light, run 1, well a: 2.13e5; induced reporter light, run 1, well b: 2.04e5; control promoter light, run 1, well a: 1.59e5; control promoter light, run 1, well b: 1.76e5; uninduced reporter light, run 1, well a: 17130; activity call: inactive
Su(P) (GeneID 39856) → induced reporter light, run 1, well a: 1.38e5; induced reporter light, run 1, well b: 1.59e5; control promoter light, run 1, well a: 1.71e5; control promoter light, run 1, well b: 1.80e5; uninduced reporter light, run 1, well a: 6860; activity call: inactive
Sry-beta (GeneID 43570) → induced reporter light, run 1, well a: 1.48e5; induced reporter light, run 1, well b: 1.80e5; control promoter light, run 1, well a: 2.08e5; control promoter light, run 1, well b: 2.29e5; uninduced reporter light, run 1, well a: 10710; activity call: inactive
Exo70 (GeneID 38959) → induced reporter light, run 1, well a: 1.48e5; induced reporter light, run 1, well b: 1.35e5; control promoter light, run 1, well a: 1.76e5; control promoter light, run 1, well b: 1.37e5; uninduced reporter light, run 1, well a: 4555; activity call: inactive
CG33124 (GeneID 318891) → induced reporter light, run 1, well a: 1.52e5; induced reporter light, run 1, well b: 1.12e5; control promoter light, run 1, well a: 97310; control promoter light, run 1, well b: 1.04e5; uninduced reporter light, run 1, well a: 9835; activity call: inactive
Rcd1 (GeneID 36560) → induced reporter light, run 1, well a: 1.05e5; induced reporter light, run 1, well b: 1.07e5; control promoter light, run 1, well a: 1.38e5; control promoter light, run 1, well b: 1.24e5; uninduced reporter light, run 1, well a: 12935; activity call: inactive
Lamtor2 + CG30120 #1 → induced reporter light, run 1, well a: 1.10e5; induced reporter light, run 1, well b: 1.25e5; control promoter light, run 1, well a: 1.53e5; control promoter light, run 1, well b: 1.37e5; uninduced reporter light, run 1, well a: 9865; activity call: inactive
Lamtor2 + CG30120 #2 → induced reporter light, run 1, well a: 1.21e5; induced reporter light, run 1, well b: 94395; control promoter light, run 1, well a: 1.14e5; control promoter light, run 1, well b: 1.09e5; uninduced reporter light, run 1, well a: 9178; activity call: inactive
Flad2 (GeneID 34759) → induced reporter light, run 1, well a: 1.77e5; induced reporter light, run 1, well b: 1.83e5; control promoter light, run 1, well a: 1.38e5; control promoter light, run 1, well b: 1.81e5; uninduced reporter light, run 1, well a: 17000; activity call: inactive
CG1663 (GeneID 36012) → induced reporter light, run 1, well a: 1.49e5; induced reporter light, run 1, well b: 1.56e5; control promoter light, run 1, well a: 1.60e5; control promoter light, run 1, well b: 1.52e5; uninduced reporter light, run 1, well a: 13545; activity call: inactive

2 entries from above, reformatted.
| Gene | dsRNA no. | induced reporter light, run 1, well a | induced reporter light, run 1, well b | control promoter light, run 1, well a | control promoter light, run 1, well b | uninduced reporter light, run 1, well a | activity call |
| --- | --- | --- | --- | --- | --- | --- | --- |
| CG33124 (GeneID 318891) | 1 | 1.52e5 | 1.12e5 | 97310 | 1.04e5 | 9835 | inactive |
| Rcd1 (GeneID 36560) | 1 | 1.05e5 | 1.07e5 | 1.38e5 | 1.24e5 | 12935 | inactive |
